{
  "sequences": {"note": "Protein sequences, listed by entry. Tags and fused reporters are not part of them. Residues count along the entry.", "UniProt O95166": "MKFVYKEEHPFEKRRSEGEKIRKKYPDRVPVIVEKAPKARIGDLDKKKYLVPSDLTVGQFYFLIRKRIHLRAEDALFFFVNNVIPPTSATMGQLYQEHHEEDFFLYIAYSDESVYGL", "UniProt Q9BXW4, residues 1-126": "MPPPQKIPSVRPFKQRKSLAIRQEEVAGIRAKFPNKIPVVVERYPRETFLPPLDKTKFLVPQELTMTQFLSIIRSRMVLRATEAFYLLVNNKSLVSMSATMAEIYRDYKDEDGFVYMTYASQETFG", "UniProt P0DTC3": "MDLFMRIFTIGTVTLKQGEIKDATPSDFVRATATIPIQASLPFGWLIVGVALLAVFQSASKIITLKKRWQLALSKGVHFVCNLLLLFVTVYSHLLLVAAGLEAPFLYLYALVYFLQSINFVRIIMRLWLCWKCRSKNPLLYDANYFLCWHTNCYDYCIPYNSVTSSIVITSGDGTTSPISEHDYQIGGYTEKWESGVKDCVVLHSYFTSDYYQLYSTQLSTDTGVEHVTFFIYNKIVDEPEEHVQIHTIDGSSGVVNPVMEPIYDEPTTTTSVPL"},
  "source": "paper doi:10.1101/2024.09.12.612614",
  "key": {"GFP-GABARAP": {"molecular_target": "GFP-GABARAP (UniProt O95166)", "experiment": "co-IP"}, "GFP-LC3C": {"molecular_target": "GFP-LC3C (UniProt Q9BXW4)", "experiment": "co-IP"}},
  "note": "Results are given in words; binding and its absence hold for the method and conditions named. In cells and extracts the contact can be indirect. Some entries that bind do so weakly or less than the wild type.",
  "data": [
    {"substance": "SARS-CoV-2 ORF3a-HA (from UniProt P0DTC3 1-275)", "values": [
      {"measurement": "binding", "setting": "GFP-GABARAP", "result": "binds"},
      {"measurement": "binding", "setting": "GFP-LC3C", "result": "binds"}
    ]}
  ]
}
